Assay results taken from the supplement of paper PMC10849652.
The other results are listed elsewhere or left out.

Protein sequences, listed by entry. Tags and fused reporters are not part of them. Lines headed by an entry give the natural chain unless they say otherwise; changes in a name come on top.
UniProt P43251: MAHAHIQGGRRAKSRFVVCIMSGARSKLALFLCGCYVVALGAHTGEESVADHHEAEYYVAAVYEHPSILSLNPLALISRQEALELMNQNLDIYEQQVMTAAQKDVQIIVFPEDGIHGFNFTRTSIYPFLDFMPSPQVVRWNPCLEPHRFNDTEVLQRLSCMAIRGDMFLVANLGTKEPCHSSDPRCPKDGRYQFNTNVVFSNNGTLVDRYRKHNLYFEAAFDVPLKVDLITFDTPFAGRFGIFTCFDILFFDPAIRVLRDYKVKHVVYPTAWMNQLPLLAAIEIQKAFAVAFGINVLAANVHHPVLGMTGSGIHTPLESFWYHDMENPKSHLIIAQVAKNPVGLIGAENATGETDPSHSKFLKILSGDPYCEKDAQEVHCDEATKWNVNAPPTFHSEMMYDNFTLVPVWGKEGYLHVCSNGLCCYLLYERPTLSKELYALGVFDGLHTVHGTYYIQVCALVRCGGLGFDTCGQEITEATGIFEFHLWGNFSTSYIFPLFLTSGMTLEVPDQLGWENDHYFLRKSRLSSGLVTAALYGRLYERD
UniProt Q8N9N5: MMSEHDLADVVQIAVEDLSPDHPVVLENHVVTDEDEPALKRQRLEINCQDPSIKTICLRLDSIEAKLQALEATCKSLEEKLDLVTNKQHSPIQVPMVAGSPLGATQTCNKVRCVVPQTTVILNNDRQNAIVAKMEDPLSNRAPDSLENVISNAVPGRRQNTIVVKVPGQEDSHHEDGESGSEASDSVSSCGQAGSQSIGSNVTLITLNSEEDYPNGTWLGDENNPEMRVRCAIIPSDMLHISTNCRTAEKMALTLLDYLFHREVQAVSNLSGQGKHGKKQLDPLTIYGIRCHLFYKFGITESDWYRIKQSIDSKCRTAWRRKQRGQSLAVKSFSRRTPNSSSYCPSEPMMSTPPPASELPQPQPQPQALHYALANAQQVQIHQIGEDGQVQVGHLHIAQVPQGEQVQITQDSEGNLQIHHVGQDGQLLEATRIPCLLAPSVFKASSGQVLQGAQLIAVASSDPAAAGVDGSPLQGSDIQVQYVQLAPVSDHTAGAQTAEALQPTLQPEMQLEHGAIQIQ
UniProt Q96Q07: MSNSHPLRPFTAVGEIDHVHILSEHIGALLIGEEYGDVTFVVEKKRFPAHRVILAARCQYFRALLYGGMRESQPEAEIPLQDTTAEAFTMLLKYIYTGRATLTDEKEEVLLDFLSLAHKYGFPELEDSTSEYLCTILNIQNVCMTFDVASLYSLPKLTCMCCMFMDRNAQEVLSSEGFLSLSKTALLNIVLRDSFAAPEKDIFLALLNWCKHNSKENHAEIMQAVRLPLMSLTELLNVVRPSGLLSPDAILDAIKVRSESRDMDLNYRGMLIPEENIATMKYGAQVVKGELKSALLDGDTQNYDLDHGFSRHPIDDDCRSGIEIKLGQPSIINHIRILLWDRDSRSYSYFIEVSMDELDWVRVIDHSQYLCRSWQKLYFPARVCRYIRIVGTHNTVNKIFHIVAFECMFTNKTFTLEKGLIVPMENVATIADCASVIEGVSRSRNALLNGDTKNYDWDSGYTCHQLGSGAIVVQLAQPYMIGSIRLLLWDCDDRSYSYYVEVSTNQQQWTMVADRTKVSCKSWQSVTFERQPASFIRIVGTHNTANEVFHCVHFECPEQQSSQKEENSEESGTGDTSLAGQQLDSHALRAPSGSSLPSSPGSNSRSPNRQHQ
UniProt Q4VC05, whole entry, looked up: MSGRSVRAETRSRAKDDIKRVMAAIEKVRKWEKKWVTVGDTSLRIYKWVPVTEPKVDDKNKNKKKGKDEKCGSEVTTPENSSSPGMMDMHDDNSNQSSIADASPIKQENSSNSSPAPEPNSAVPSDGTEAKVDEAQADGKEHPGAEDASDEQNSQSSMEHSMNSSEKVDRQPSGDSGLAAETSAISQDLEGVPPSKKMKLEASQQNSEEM
UniProt Q99728: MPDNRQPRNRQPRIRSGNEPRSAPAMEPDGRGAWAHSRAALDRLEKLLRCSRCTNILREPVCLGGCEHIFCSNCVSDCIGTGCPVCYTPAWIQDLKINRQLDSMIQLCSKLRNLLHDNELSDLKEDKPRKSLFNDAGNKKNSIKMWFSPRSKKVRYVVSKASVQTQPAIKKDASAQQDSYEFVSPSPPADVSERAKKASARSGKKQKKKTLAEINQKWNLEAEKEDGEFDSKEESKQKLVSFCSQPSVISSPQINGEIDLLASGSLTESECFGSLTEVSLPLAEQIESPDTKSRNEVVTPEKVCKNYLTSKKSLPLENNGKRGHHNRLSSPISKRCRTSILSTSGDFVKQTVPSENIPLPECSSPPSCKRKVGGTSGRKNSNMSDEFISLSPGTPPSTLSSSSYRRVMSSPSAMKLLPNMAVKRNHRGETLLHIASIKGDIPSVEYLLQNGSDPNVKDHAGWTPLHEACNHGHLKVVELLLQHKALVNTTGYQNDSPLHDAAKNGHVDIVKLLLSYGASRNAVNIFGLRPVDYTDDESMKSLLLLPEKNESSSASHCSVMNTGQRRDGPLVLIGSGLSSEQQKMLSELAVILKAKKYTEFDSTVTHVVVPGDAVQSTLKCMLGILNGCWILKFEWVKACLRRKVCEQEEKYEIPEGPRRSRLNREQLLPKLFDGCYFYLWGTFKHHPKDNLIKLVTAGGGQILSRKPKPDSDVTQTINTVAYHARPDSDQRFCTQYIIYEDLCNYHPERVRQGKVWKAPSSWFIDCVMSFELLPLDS
UniProt O15155: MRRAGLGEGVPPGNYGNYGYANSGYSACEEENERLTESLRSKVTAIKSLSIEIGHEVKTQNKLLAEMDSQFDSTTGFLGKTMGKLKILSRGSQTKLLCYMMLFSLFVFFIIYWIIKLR
UniProt Q9NUP1: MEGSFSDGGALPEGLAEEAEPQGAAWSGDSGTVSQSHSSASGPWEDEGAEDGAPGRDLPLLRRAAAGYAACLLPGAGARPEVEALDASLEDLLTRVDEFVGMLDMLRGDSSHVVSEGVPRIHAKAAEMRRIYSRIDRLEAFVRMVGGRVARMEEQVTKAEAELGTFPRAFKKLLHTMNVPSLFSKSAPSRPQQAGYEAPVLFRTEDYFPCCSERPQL
UniProt Q14692: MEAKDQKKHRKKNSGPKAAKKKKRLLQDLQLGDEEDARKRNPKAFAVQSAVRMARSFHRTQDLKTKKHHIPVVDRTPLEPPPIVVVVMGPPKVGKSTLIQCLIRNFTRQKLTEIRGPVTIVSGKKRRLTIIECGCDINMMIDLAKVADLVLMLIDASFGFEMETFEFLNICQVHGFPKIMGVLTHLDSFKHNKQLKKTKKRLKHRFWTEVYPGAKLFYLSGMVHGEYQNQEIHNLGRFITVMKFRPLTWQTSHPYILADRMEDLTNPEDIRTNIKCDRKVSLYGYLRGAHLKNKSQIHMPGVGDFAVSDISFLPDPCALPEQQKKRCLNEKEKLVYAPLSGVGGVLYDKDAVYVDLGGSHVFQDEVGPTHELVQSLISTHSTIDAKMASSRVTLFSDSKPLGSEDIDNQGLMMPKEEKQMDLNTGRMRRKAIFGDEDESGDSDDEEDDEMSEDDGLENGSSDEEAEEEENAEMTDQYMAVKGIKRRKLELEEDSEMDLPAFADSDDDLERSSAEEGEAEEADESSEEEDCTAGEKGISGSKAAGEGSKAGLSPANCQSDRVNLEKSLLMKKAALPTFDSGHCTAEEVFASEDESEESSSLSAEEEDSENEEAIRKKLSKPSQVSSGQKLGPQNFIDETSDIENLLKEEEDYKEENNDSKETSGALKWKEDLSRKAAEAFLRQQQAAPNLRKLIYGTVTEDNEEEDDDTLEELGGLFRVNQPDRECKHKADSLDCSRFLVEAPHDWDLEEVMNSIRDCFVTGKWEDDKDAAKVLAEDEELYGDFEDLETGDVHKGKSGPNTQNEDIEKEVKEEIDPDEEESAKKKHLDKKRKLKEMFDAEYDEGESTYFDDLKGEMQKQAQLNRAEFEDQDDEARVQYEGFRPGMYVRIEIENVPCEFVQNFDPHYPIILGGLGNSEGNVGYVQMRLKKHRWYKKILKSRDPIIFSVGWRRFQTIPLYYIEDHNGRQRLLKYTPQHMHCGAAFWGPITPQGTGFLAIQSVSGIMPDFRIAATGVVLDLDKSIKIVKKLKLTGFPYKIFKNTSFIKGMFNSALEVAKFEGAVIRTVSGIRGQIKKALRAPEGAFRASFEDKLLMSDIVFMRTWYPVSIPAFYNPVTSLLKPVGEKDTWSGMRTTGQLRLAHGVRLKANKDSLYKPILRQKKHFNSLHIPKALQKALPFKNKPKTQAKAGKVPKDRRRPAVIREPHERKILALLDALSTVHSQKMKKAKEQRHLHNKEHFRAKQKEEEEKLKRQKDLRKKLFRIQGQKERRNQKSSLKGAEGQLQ
UniProt P12694: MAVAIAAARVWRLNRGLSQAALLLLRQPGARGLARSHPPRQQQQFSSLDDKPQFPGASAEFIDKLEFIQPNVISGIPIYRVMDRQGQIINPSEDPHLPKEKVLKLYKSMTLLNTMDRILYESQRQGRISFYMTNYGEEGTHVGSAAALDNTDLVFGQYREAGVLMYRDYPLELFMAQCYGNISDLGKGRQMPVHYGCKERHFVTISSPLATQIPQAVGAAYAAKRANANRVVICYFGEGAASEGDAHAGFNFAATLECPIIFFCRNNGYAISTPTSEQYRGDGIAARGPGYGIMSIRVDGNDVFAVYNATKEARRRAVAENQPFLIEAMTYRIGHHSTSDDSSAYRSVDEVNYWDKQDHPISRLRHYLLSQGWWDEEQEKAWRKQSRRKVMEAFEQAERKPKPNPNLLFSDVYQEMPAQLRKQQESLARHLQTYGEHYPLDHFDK
UniProt P25440, whole entry, looked up: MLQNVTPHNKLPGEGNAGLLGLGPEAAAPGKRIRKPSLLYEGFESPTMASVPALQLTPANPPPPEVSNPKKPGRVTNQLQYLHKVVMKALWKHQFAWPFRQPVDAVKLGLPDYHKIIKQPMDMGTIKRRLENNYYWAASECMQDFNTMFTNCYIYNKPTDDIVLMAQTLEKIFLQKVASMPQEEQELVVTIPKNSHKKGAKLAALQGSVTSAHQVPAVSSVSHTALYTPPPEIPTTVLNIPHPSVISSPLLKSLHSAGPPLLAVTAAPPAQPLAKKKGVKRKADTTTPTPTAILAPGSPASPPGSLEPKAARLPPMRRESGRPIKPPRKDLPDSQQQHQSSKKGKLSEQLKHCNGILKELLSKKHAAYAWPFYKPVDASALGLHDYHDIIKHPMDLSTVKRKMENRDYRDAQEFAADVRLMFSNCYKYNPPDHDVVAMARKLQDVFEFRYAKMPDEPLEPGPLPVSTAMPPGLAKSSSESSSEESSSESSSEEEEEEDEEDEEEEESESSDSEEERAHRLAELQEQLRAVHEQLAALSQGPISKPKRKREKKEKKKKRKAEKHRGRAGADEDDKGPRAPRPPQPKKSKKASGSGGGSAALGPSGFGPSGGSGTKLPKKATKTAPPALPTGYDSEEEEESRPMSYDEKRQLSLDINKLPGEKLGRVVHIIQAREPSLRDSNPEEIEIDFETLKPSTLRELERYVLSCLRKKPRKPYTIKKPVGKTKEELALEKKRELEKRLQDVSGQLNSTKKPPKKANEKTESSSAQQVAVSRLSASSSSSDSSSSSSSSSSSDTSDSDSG
UniProt Q53S33: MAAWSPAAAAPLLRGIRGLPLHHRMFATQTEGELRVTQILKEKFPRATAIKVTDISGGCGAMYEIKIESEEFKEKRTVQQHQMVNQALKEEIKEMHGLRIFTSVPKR
UniProt Q9NYM9: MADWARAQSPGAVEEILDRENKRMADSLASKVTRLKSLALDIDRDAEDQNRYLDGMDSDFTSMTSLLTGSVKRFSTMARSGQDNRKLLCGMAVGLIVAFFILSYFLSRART
UniProt Q6PJG6: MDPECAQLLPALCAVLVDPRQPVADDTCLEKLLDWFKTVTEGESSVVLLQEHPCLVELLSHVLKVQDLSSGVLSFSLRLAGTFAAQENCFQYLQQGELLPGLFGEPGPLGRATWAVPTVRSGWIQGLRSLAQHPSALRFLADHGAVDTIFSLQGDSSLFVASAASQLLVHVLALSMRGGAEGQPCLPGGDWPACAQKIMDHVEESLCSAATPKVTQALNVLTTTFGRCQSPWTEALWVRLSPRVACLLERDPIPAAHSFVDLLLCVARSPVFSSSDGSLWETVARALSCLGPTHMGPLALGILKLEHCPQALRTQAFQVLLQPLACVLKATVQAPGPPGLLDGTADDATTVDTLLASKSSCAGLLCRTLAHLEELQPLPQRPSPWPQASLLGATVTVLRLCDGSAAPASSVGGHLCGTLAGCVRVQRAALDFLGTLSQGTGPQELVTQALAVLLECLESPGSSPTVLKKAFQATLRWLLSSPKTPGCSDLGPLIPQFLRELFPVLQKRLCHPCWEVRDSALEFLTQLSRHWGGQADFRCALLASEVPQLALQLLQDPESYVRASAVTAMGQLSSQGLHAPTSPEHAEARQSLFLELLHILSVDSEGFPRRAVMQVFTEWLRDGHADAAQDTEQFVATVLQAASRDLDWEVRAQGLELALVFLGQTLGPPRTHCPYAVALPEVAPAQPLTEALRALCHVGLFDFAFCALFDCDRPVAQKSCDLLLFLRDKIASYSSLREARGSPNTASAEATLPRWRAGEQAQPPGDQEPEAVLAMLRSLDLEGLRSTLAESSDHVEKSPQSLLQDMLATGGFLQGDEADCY

Legend:
Assay in all cases: log2 fold change, soluble protein after heating vs DMSO (PISA); higher = thermal stabilisation; K562 lysate, 10 uM; active = over 0.2 and 3.5 SD of the protein, either way, in both replicates (recomputed)
[1] = compound: CS(=O)(=O)CCNCc1ccc(-c2ccc3ncnc(Nc4ccc(OCc5cccc(F)c5)c(Cl)c4)c3c2)o1 [lapatinib]
Outline: (§1)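 Soluble protein was defined as the supernatant remaining after 21,000xg for 90 min, following pooling of heated aliquots and adjustment to 0.5% NP-40 at 4°C. Before that, crude K562 extract at 1 mg/mL protein in PBS pH 7.4 with 1 mM MgCl2 was treated with 10 μM compound for 30 min and heated for 3 min across 48°C-58°C. Quantification used TMTpro 16plex LC-MS/MS with channel sums equalised, and values are log-two fold changes in thermal stability relative to solvent controls from duplicates.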

[2] = compound: CS(=O)(=O)N1CCN(Cc2cc3nc(-c4cccc5[nH]ncc45)nc(N4CCOCC4)c3s2)CC1 [pictilisib]
Outline: as §1

[3] = compound: C[C@@H](Oc1cc(-c2cnn(C3CCNCC3)c2)cnc1N)c1c(Cl)ccc(F)c1Cl [crizotinib]
Outline: as §1

[4] = compound: C[C@H](C1=CC=C(C=C1)C(=O)NC2=C3C=CNC3=NC=C2)N
Outline: as §1

[5] = compound: C[C@H](Nc1ncnc2nc[nH]c12)c1cc2cccc(Cl)c2c(=O)n1-c1ccccc1 [duvelisib]
Outline: as §1

[6] = compound: Cc1cc(Nc2cc(CN3CCOCC3)c3nc(C)c(Cc4ccc(Cl)cc4F)n3n2)n[nH]1 [gandotinib]
Outline: as §1

[7] = compound: Cc1cc(Nc2cc(N3CCN(C)CC3)nc(Sc3ccc(NC(=O)C4CC4)cc3)n2)n[nH]1 [tozasertib]
Outline: as §1

[8] = compound: Cc1ccc(-n2nc(C(C)(C)C)cc2NC(=O)Nc2ccc(OCCN3CCOCC3)c3ccccc23)cc1 [doramapimod]
Outline: as §1

[9] = compound: Cc1ccc(NC(=O)c2ccc(CN3CC[C@H](N(C)C)C3)c(C(F)(F)F)c2)cc1Nc1nccc(-c2cncnc2)n1 [bafetinib]
Outline: as §1

[10] = compound: Cc1cccc(CC(=O)N2CCc3c2ccc(-c2cn(C)c4ncnc(N)c24)c3F)n1
Outline: as §1

Target	log2 fold change [1]	log2 fold change [2]	log2 fold change [3]	log2 fold change [4]	log2 fold change [5]	log2 fold change [6]	log2 fold change [7]	log2 fold change [8]	log2 fold change [9]	log2 fold change [10]
BROX (UniProt Q5VW32)	inactive: -0.034	inactive: -0.06	inactive: -0.009	inactive: 0.023	inactive: 0.014	inactive: -0.097	inactive: 0.006	inactive: 0.023	inactive: -0.017	inactive: -0.049
BTN2A1 (UniProt Q7KYR7)	inactive: 0.018	inactive: 0.018	inactive: 0.018	inactive: -0.087	inactive: -0.05	inactive: 0.02	inactive: 0.067	inactive: -0.009	inactive: -0.04	inactive: 0.026
BTD isoform 3 (UniProt P43251)	inactive: 0.029	inactive: 0.063	inactive: 0.035	inactive: -0.062	inactive: -0.006	inactive: 0.003	inactive: 0.057	inactive: -0.059	inactive: -0.044	inactive: 0.095
BANP (UniProt Q8N9N5)	inactive: -0.115	inactive: 0.008	inactive: -0.009	inactive: 0.036	inactive: -0.027	inactive: -0.097	inactive: -0.019	inactive: 0.02	inactive: -0.151	inactive: 0.099
BTBD9 (UniProt Q96Q07)	inactive: 0.107									
BOLA2 (UniProt Q9H3K6)	inactive: -0.038	inactive: -0.035	inactive: 0.02	active: 0.46	inactive: 0.03	inactive: -0.088	inactive: 0.069	inactive: 0.033	inactive: 0.094	inactive: -0.064
BRD8 isoform 2 (UniProt Q9H0E9)	inactive: 0.032	inactive: 0	inactive: -0.016	inactive: 0.01	inactive: 0.031	inactive: 0.019	inactive: -0.022	inactive: 0.037	inactive: -0.039	inactive: 0.013
BCL7A isoform 2 (UniProt Q4VC05)	inactive: -0.012	inactive: -0.031	inactive: 0.074	inactive: 0.08	inactive: -0.032	inactive: -0.063	inactive: 0.015	inactive: 0.007	inactive: 0.044	inactive: -0.104
BARD1 (UniProt Q99728)	inactive: -0.274	inactive: -0.004	inactive: -0.128	inactive: 0.083	inactive: 0.14	inactive: -0.193	inactive: 0.112	inactive: 0.09	inactive: -0.169	inactive: 0.146
BICD1 (UniProt Q96G01)	inactive: -0.016	inactive: 0.061	inactive: 0.04	inactive: -0.034	inactive: 0.028	inactive: 0.01	inactive: 0.056	inactive: -0.001	inactive: -0.041	inactive: 0.006
B4GALT3 (UniProt O60512)	inactive: 0.197	inactive: -0.134	inactive: 0.036	inactive: 0.071	inactive: -0.012	inactive: -0.11	inactive: 0.081	inactive: 0.008	inactive: -0.053	inactive: -0.064
BET1 (UniProt O15155)	inactive: -0.051	inactive: -0.034	inactive: -0.004	inactive: -0.004	inactive: 0.01	inactive: -0.006	inactive: 0	inactive: 0.03	inactive: -0.056	inactive: 0.03
BCAS3 isoform 8 (UniProt Q9H6U6)	inactive: 0.033	inactive: 0.068	inactive: -0.034	inactive: -0.188	inactive: 0.024	inactive: 0.084	inactive: -0.23	inactive: 0.043	inactive: 0.114	inactive: 0.025
BLOC1S4 (UniProt Q9NUP1)	inactive: -0.001	inactive: -0.093	inactive: 0.022	inactive: 0.026	inactive: -0.077	inactive: -0.03	inactive: -0.017	inactive: -0.021	inactive: 0.036	inactive: -0.05
BSDC1 (UniProt Q9NW68)	inactive: 0.088	inactive: -0.055	inactive: 0.012	inactive: -0.052	inactive: 0.016	active: 0.312	inactive: -0.005	inactive: 0.098	inactive: -0.012	inactive: 0.019
BMS1 (UniProt Q14692)	inactive: -0.029	inactive: -0.052	inactive: -0.058	inactive: -0.018	inactive: -0.036	inactive: 0.043	inactive: 0.018	inactive: 0.047	inactive: -0.032	inactive: 0.045

Target	log2 fold change [1]	log2 fold change [2]	log2 fold change [3]	log2 fold change [4]	log2 fold change [5]	log2 fold change [6]	log2 fold change [7]	log2 fold change [8]	log2 fold change [9]	log2 fold change [10]
BRCC3 (UniProt P46736)	inactive: -0.022	inactive: -0.018	inactive: -0.027	inactive: -0.073	inactive: 0.068	inactive: 0.039	inactive: 0.044	inactive: 0.063	inactive: -0.03	inactive: -0.011
BCKDHA (UniProt P12694)	inactive: 0.018	inactive: -0.024	inactive: 0.004	inactive: -0.001	inactive: 0.02	inactive: -0.013	inactive: 0.014	inactive: 0.023	inactive: 0.037	inactive: 0.02
BTF3L4 (UniProt Q96K17)	inactive: -0.015	inactive: 0.011	inactive: 0.052	inactive: -0.114	inactive: 0.018	inactive: 0.085	inactive: -0.039	inactive: -0.046	inactive: 0.136	inactive: 0.017
BAG3 (UniProt O95817)	inactive: -0.014	inactive: -0.006	inactive: 0.047	inactive: 0.071	inactive: 0.009	inactive: -0.004	inactive: 0.019	inactive: -0.018	inactive: 0.017	inactive: -0.076
BIRC5 (UniProt O15392)	inactive: -0.026	inactive: 0.242	inactive: 0.047	inactive: -0.007	inactive: 0.106	inactive: 0.012	inactive: 0.151	inactive: -0.065	inactive: -0.226	inactive: -0.01
BRD2 isoform 2 (UniProt P25440)	inactive: 0.014	inactive: 0.012	inactive: 0.024	inactive: 0.128	inactive: -0.007	inactive: -0.133	inactive: 0	inactive: -0.084	inactive: -0.131	inactive: -0.186
BAX isoform 2 (UniProt Q07812)	inactive: 0.03	inactive: -0.012	inactive: -0.054	inactive: 0.018	inactive: 0.007	inactive: -0.008	inactive: -0.009	inactive: 0.031	inactive: -0.009	inactive: -0.026
BLOC1S2 (UniProt Q6QNY1)	inactive: 0.029	inactive: -0.084	inactive: -0.259	inactive: -0.026	inactive: 0.145	inactive: 0.144	inactive: 0.145	inactive: -0.003	inactive: -0.032	inactive: 0.052
BOLA3 (UniProt Q53S33)	inactive: -0.004	inactive: 0.005	inactive: 0.057	inactive: -0.156	inactive: 0	inactive: 0.041	inactive: 0.052	inactive: -0.023	inactive: -0.005	inactive: -0.001
BET1L (UniProt Q9NYM9)	inactive: 0.15	inactive: -0.112	inactive: 0.058	inactive: 0.044	inactive: 0.012	inactive: -0.045	inactive: -0.054	inactive: -0.134	inactive: -0.174	inactive: -0.067
BST2 (UniProt Q10589)	inactive: -0.035	inactive: -0.021	inactive: 0.009	inactive: -0.055	inactive: -0.003	inactive: 0.032	inactive: -0.029	inactive: -0.008	inactive: -0.042	inactive: 0.027
BCAP31 isoform 2 (UniProt P51572)	inactive: -0.005	inactive: 0.014	inactive: 0.099	inactive: -0.059	inactive: 0.007	inactive: 0.03	inactive: -0.003	inactive: -0.059	inactive: 0.005	inactive: -0.007
BRAT1 (UniProt Q6PJG6)	inactive: 0.026	inactive: -0.013	inactive: -0.103	inactive: 0	inactive: -0.001	inactive: -0.1	inactive: 0.017	inactive: 0.052	inactive: -0.014	inactive: 0.038
BLVRA (UniProt C9J1E1)	inactive: 0.012									
BCL7B (UniProt Q9BQE9)	inactive: -0.061	inactive: 0.149	inactive: 0.065	inactive: 0.279	inactive: 0.028	inactive: -0.209	inactive: -0.159	inactive: -0.065	inactive: -0.371	inactive: -0.215
